Among all 320,000 compounds or so, about 22,000 (6.9%) were called active. The shares of active, inactive and inconclusive entries below differ from those in the screen. The call rests on the fitted dose curve; in most records, active means well fitted inhibition curve with a large enough effect; inconclusive means small, poorly fitted or top-dose-only effect, or another doubt; inactive means no such curve, though single readings can be large or run the other way. Potencies of inconclusive entries are doubtful fits and often do not repeat.
Experiment: Primary qHTS for delayed death inhibitors of the malarial parasite plastid, 96 hour incubation
Conditions: P. falciparum luciferase reporter growth; series mostly up to 28.7 µM
Outline: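 Luminescence readout: decreased luciferase signal marks inhibited growth of reporter-expressing P. falciparum in infected red cells (2% hematocrit, 0.05% parasitemia final), exposed to compound two generations (96 h, 37 C, 5% CO2).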
Potency means the concentration at half of the fitted maximal effect.

| Compound | Potency |
| --- | --- |
| CCOC(=O)N1CCN(C(=O)COc2ccc3oc4c(c3c2)CCCC4)CC1 | inactive |
| CCCC(=O)Nc1nnc(S(=O)(=O)N(CC)c2ccc(OC)cc2)s1 | inactive |
| O=C(NC(C1CC1)C1CC1)C1CCC(=O)N(CCCN2CCCC2=O)C1 (stereo not given) | inactive |
| C=C(C)COc1ccc(-c2n[nH]c(C)c2Oc2ccccc2OC)c(O)c1 | active: 4.65 µM |
| Cc1cccc(Nc2nnc(SCC(=O)c3c(N)n(C4CC4)c(=O)[nH]c3=O)s2)c1 | active: 6.57 µM |
| O=[N+]([O-])c1cccc(-c2cc(-c3cc(Br)ccc3O)[nH]n2)c1 | active: 8.28 µM |
| CC(C)(C)c1ccc(OCC(=O)NCc2ccco2)c(Br)c1 | inactive |
| CSCCC(NS(=O)(=O)c1ccc(C)cc1)C(=O)N1CCN(S(=O)(=O)c2ccc(F)cc2)CC1 (stereo not given) | inconclusive: 18.5 µM [inhibitor, partial curve, poor fit] |
| Cc1ccc(-n2c(CNc3ccc(F)cc3)nnc2SCC(N)=O)cc1 | inconclusive: 0.0033 µM [inhibitor, full curve, poor fit] |
| CCN(CC)CCNC(=O)c1ccc(NC(=O)Cc2ccsc2)cc1 | inconclusive: 18.5 µM [inhibitor, single point] |
| C#C[C@]1(O)CC[C@H]2[C@@H]3CCC4=C(CCC(=O)C4)[C@H]3CC[C@@]21C | inconclusive: 18.5 µM [inhibitor, single point] |
| COc1ccc(CC(=O)NCc2nnc(SCC(=O)Nc3ccc(OC)cc3)n2C)cc1 | inconclusive: 10.4 µM [inhibitor, partial curve, poor fit] |
| COc1ccccc1/C=C\C(=O)NCC(=O)N/N=C/c1cccc(OC)c1O | inactive |
| Cc1cccc(C)c1OCc1cc(C(=O)N2CCN(c3ccccn3)CC2)no1 | inconclusive: 18.5 µM [inhibitor, single point] |
| CC1(C)OC(=O)C(=CNCC(O)c2ccccc2)C(=O)O1 (stereo not given) | inconclusive: 3.7 µM [inhibitor, single point] |
| N#CCSc1nnc(-c2c[nH]c3ccccc23)o1 | inconclusive: 10.4 µM [inhibitor, single point] |
| COc1ccc(-n2ncc3c(N4CCN(Cc5ccccc5)CC4)ncnc32)cc1 | inconclusive: 13.1 µM [inhibitor, single point] |
| Cc1ccccc1CC(=O)N1CCN(C(=O)c2ccco2)CC1 | inconclusive: 14.7 µM [inhibitor, partial curve, poor fit] |
| CC(=O)c1cccc(S(=O)(=O)NCC2CCCCC2)c1 | inactive |
| CCCc1cc(=O)[nH]c(SCC(=O)Nc2ncc(S(=O)(=O)c3ccc([N+](=O)[O-])cc3)s2)n1 | inconclusive: 0.037 µM [inhibitor, partial curve, poor fit] |
| COC(=O)N(C)c1ccc(C(O)(C(=O)OC)C(F)(F)F)cc1 (stereo not given) | inconclusive: 3.29 µM [inhibitor, single point] |
| COc1cc(C2CC(=O)Oc3c(C(CCN4CCCC(C)C4)c4ccc(N(C)C)cc4)c(OC)cc(OC)c32)cc(OC)c1OC (stereo not given) | inconclusive: 11.7 µM [inhibitor, single point] |
| COC(=O)C1=C(c2ccc(OC)c(OC)c2)C[C@@H]2CC[C@H]1N2C(=O)N1CCC(C)CC1 | inconclusive: 14.7 µM [inhibitor, single point] |

| Compound | Potency |
| --- | --- |
| NC1=NC2(CCCCC2)N(c2cccc(Cl)c2)C(N)=N1 | inconclusive: 0.262 µM [inhibitor, partial curve, poor fit] |
| COc1cccc(C(=O)Oc2ccc3ccc(O)cc3c2)c1 | inactive |
| CC(NC(=O)c1ccc(Cl)c(S(=O)(=O)N2CCCCCC2)c1)c1cccnc1 (stereo not given) | inconclusive: 4.15 µM [inhibitor, partial curve, poor fit] |
| CN1CCN(S(=O)(=O)c2ccc(NN)nc2)CC1 | inconclusive: 14.7 µM [inhibitor, single point] |
| NS(=O)(=O)c1ccc(CCNC(=O)C2CCCN(S(=O)(=O)c3cccnc3)C2)cc1 (stereo not given) | active: 7.38 µM |
| O=C1N/C(=N/S(=O)(=O)c2ccccc2)S/C1=C/c1cccnc1 | inconclusive: 16.5 µM [inhibitor, partial curve, poor fit] |
| CC(C)CNC(=O)CSc1nnc(-c2ccc(Cl)cc2)n1N | inconclusive: 5.22 µM [inhibitor, partial curve] |
| CS(=O)(=O)NCc1nnc(SCC(=O)NC2CCCCC2)n1-c1ccc(F)cc1 | inactive |
| O=C(COc1ccc2ccccc2c1)N1CCNCC1 | inactive |
| COc1cc(SC)ccc1C(=O)NCc1ccccc1 | inconclusive: 10.4 µM [inhibitor, single point] |
| N#CC1=C(N)NC(SCC(=O)Nc2ccccc2)=C(C#N)C12CCCCC2 | active: 13.1 µM |
| Cc1nnc(SCC(=O)NC2CCCc3ccccc32)n1-c1ccccc1 (stereo not given) | inconclusive: 7.38 µM [inhibitor, partial curve, poor fit] |
| CCCOc1ccc(C(=O)CCCC(=O)c2ccc(OCCC)cc2)cc1 | inactive |
| CCOc1ccc(NC(=S)N(C)C)cc1 | inactive |
| COc1ccc(C)cc1NC(=O)CCNS(=O)(=O)c1ccc2c(c1)CC(C)N2C(C)=O (stereo not given) | inconclusive: 18.5 µM [inhibitor, single point] |
| CCN(CC)S(=O)(=O)c1ccc(N2CCOCC2)c(NC(=O)c2cccc3ccccc23)c1 | inconclusive: 18.5 µM [inhibitor, single point] |
| COc1ccc(NC2CCCN(C(=O)CSc3ccccc3)C2)cc1 (stereo not given) | inactive |
| COc1ccc(C(CNC(=O)c2[nH]c(C)c(C(C)=O)c2C)N2CCOCC2)cc1 (stereo not given) | inconclusive: 5.86 µM [inhibitor, partial curve] |
| CNC(=O)OC(C)CNS(=O)(=O)c1ccc(C)cc1 (stereo not given) | active: 11.7 µM |
| CCS(=O)(=O)N1CCC(C(=O)NCc2ccccc2OC)CC1 | inactive |
| COc1ccccc1OCCNC(=O)CNC(=O)c1ccc(C(C)(C)C)cc1 | inconclusive: 18.5 µM [inhibitor, single point] |
| CC(C)CC1Nc2ncnc(N3CCN(c4ccccc4)CC3)c2N(Cc2ccccc2)C1=O (stereo not given) | active: 11.7 µM |

A different layout for part of the listing above.
Compound	Potency
NC1=NC2(CCCCC2)N(c2cccc(Cl)c2)C(N)=N1	inconclusive: 0.262 µM [inhibitor, partial curve, poor fit]
COc1cccc(C(=O)Oc2ccc3ccc(O)cc3c2)c1	inactive

Source: PubChem BioAssay AID504834 (National Center for Advancing Translational Sciences (NCATS), 2011)
